Results reported in PMC4229207.
No constants are given. Whether binding was seen depends on the method and setting. Binding seen in cells or lysates may run through a third protein. Some results given as binding are weak or reduced against the parent protein; the word gives no strength. Sequences can lack the tags named with a protein.

T1: NA14 (nuclear autoantigen 1; SSNA1) (human (endogenous in HeLa)) (UniProt O43805)
T1 sequence: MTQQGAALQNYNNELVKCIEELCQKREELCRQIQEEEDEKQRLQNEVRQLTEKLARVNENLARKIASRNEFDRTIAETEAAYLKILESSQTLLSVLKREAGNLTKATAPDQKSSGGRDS


Molecular target: T1, NA14 (nuclear autoantigen 1; SSNA1) (human (endogenous in HeLa))
Assay: co-IP; HeLa cells transfected with Myc-spastin M1 or M87; extracts in 0.5% Triton X-100/PBS, immunoprecipitated with rabbit polyclonal anti-SSNA1 (NA14) antibodies or non-immune IgG at 4°C, Protein A/G PLUS-agarose beads, immunoblotted with Myc-epitope antibodies

binding | Binder
no binding | Myc-spastin M1 (protein, UniProt Q9UBP0-1 1-616) MNSPGGRGKKKGSGGASNPVPPRPPPPCLAPAPPAAGPAPPPESPHKRNLYYFSYPLFVGFALLRLVAFHLGLLFVWLCQRFSRALMAAKRSSGAAPAPASASAPAPVPGGEAERVRVFHKQAFEYISIALRIDEDEKAGQKEQAVEWYKKGIEELEKGIAVIVTGQGEQCERARRLQAKMMTNLVMAKDRLQLLEKMQPVLPFSKSQTDVYNDSTNLACRNGHLQSESGAVPKRKDPLTHTSNSLPRSKTVMKTGSAGLSGHHRAPSYSGLSMVSGVKQGSGPAPTTHKGTPKTNRTNKPSTPTTATRKKKDLKNFRNVDSNLANLIMNEIVDNGTAVKFDDIAGQDLAKQALQEIVILPSLRPELFTGLRAPARGLLLFGPPGNGKTMLAKAVAAESNATFFNISAASLTSKYVGEGEKLVRALFAVARELQPSIIFIDEVDSLLCERREGEHDASRRLKTEFLIEFDGVQSAGDDRVLVMGATNRPQELDEAVLRRFIKRVYVSLPNEETRLLLLKNLLCKQGSPLTQKELAQLARMTDGYSGSDLTALAKDAALGPIRELKPEQVKNMSASEMRNIRLSDFTESLKKIKRSVSPQTLEAYIRWNKDFGDTTV
binds | Myc-spastin M87 (protein, UniProt Q9UBP0-1 87-616) MAAKRSSGAAPAPASASAPAPVPGGEAERVRVFHKQAFEYISIALRIDEDEKAGQKEQAVEWYKKGIEELEKGIAVIVTGQGEQCERARRLQAKMMTNLVMAKDRLQLLEKMQPVLPFSKSQTDVYNDSTNLACRNGHLQSESGAVPKRKDPLTHTSNSLPRSKTVMKTGSAGLSGHHRAPSYSGLSMVSGVKQGSGPAPTTHKGTPKTNRTNKPSTPTTATRKKKDLKNFRNVDSNLANLIMNEIVDNGTAVKFDDIAGQDLAKQALQEIVILPSLRPELFTGLRAPARGLLLFGPPGNGKTMLAKAVAAESNATFFNISAASLTSKYVGEGEKLVRALFAVARELQPSIIFIDEVDSLLCERREGEHDASRRLKTEFLIEFDGVQSAGDDRVLVMGATNRPQELDEAVLRRFIKRVYVSLPNEETRLLLLKNLLCKQGSPLTQKELAQLARMTDGYSGSDLTALAKDAALGPIRELKPEQVKNMSASEMRNIRLSDFTESLKKIKRSVSPQTLEAYIRWNKDFGDTTV
